# Source: PubChem BioAssay (EPA / NIEHS)
# Sequences of proteins named here, by UniProt entry; tags and fusion partners are left off. A change or cut given only in a name is not applied to a line headed by its entry.
# UniProt O75469: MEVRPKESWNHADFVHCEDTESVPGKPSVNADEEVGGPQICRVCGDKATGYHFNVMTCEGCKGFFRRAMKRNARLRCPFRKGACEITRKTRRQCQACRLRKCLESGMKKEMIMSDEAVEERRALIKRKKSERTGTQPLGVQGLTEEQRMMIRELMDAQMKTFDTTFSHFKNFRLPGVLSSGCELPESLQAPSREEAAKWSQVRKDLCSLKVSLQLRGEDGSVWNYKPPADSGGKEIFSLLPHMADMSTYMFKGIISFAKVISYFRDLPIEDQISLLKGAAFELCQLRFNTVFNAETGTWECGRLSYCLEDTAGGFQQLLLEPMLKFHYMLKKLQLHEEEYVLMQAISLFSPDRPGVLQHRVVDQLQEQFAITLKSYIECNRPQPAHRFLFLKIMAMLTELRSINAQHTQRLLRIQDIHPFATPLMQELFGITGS
# UniProt P13631, whole entry, looked up: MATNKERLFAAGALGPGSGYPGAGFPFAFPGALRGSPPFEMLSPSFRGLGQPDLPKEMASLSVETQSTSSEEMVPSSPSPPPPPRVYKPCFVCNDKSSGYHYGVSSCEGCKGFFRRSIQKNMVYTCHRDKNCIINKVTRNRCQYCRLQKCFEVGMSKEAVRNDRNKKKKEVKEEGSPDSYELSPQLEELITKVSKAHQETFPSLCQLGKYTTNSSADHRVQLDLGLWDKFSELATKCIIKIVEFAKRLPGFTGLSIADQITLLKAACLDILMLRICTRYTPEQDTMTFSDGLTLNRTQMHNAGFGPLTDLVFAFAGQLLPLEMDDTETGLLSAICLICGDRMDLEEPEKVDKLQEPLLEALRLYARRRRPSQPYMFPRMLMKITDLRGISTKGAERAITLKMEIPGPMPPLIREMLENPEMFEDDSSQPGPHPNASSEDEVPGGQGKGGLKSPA
# UniProt Q92753: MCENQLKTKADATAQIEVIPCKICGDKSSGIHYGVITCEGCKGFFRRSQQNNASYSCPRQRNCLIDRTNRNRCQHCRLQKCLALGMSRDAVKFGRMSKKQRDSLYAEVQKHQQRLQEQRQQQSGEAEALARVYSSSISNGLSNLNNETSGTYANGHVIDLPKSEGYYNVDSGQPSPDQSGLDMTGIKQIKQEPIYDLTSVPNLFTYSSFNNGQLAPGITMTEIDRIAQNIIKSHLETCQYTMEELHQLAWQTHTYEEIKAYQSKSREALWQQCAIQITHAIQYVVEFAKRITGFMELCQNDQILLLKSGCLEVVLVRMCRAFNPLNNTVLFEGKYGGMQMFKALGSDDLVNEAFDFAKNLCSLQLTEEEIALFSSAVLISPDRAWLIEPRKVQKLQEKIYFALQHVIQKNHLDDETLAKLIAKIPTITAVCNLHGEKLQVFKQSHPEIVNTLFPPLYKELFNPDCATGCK
# UniProt P51449: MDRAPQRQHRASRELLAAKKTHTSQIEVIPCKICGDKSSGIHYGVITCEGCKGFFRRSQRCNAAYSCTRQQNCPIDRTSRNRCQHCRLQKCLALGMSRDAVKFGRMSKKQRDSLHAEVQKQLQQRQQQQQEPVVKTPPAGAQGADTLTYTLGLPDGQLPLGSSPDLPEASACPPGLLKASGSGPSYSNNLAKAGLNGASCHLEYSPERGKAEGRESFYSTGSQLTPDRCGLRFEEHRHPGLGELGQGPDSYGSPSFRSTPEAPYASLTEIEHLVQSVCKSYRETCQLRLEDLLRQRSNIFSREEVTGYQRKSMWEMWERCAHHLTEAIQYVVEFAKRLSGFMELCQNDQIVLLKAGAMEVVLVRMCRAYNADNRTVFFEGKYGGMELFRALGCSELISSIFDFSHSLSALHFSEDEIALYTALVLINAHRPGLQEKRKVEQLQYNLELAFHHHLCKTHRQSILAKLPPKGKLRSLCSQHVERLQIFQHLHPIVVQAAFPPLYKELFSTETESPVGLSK
# UniProt P28702: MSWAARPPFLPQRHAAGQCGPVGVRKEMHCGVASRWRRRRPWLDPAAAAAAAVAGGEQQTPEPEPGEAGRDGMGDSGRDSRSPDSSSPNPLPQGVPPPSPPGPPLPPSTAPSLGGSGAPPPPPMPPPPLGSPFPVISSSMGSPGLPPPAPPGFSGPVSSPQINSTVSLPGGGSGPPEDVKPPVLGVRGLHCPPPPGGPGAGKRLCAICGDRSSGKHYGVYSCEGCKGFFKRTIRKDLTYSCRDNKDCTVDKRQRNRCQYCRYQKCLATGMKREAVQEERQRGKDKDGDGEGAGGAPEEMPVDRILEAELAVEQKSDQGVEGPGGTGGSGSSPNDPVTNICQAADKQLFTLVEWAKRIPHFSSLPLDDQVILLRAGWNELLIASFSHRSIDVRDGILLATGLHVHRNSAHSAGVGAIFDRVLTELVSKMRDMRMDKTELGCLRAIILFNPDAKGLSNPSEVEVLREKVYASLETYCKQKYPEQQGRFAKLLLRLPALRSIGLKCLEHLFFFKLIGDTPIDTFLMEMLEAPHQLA
# UniProt P11473: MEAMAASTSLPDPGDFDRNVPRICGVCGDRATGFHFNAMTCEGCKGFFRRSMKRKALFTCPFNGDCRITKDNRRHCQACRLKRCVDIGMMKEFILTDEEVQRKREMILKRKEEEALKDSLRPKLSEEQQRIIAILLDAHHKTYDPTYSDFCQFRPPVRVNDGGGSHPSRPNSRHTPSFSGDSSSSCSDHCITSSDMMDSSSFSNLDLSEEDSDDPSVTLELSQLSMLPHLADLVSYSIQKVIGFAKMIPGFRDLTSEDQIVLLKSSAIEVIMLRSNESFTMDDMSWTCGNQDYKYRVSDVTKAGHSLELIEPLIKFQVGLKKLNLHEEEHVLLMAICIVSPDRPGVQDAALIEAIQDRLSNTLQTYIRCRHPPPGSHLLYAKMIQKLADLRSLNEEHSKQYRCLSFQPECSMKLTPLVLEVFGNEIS
# UniProt P10827: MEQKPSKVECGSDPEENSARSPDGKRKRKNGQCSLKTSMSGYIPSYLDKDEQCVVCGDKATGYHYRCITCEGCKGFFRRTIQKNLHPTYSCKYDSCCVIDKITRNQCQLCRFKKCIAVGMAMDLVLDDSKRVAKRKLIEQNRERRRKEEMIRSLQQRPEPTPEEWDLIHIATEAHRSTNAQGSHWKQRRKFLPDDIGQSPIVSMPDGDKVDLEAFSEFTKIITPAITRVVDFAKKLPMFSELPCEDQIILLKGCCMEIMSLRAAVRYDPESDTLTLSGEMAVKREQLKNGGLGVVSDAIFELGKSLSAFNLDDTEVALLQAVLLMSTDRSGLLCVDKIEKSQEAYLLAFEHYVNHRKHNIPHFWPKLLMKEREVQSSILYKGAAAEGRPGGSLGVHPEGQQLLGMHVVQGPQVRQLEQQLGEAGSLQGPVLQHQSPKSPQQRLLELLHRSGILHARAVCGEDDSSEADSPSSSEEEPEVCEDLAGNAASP
# UniProt P19793: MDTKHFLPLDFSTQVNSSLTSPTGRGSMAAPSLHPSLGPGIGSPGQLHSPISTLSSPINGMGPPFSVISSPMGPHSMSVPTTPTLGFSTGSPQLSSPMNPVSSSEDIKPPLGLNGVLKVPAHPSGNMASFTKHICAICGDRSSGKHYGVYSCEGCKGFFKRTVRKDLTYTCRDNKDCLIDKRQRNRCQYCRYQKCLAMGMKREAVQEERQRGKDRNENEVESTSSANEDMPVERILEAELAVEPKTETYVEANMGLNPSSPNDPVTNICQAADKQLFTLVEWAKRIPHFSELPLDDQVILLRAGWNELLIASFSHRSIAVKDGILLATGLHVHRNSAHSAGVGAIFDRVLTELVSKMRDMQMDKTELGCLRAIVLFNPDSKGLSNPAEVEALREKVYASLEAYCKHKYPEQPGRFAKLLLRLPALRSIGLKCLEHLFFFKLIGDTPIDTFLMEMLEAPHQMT
# This list was built around the results that the source calls inconclusive (neither active nor inactive); the mix of calls is not that of the screen. Where the call is inconclusive, the potency comes from a doubtful curve fit. Active and inactive are the calls of the source. The calls were made as follows: active = hit-call score of the fitted dose curve at least 0.9, where 1 is the maximum; inconclusive = response in the unintended direction; inactive = score below 0.9.
# Key:
# [1] = target: Nuclear receptor subfamily 1 group I member 2 (Homo sapiens) (UniProt O75469); experiment: ATG_PXR_TRANS: Attagene TRANS-FACTORIAL HepG2 Assay for human Pregnane X Receptor (PXR) (AID 2283008)
# Method in brief: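 HepG2 cells transiently transfected with multiple reporter units, here a PXR-GAL4 chimera driving a GAL4-UAS reporter; 24 h compound exposure. Reporter mRNA measured by RT-PCR, FAM labelling and capillary electrophoresis; gain of signal fitted against DMSO baseline.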
# [2] = target: human Retinoic Acid Receptor gamma (RARg), RARG (gene 5916) (UniProt P13631); experiment: ATG_RARg_TRANS: Attagene TRANS-FACTORIAL HepG2 Assay for human Retinoic Acid Receptor gamma (RARg) (AID 2283009);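 as to AC50: AC50 is for reporter induction above DMSO meaning RARg activation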
# Method in brief: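 HepG2 transiently transfected with GAL4-UAS reporter units and chimeric NR-Gal4 constructs; 24 h compound exposure. Reporter mRNA quantified by RT-PCR, FAM labeling, HpaI digestion and capillary electrophoresis; gain-of-signal versus DMSO.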
# [3] = target: human RAR-related Orphan Receptor beta (RORb), RORB (gene 6096) (UniProt Q92753); experiment: ATG_RORb_TRANS: Attagene TRANS-FACTORIAL HepG2 Assay for human RAR-related Orphan Receptor beta (RORb) (AID 2283010);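 as to AC50: potency for increased reporter mRNA meaning activation of RORb-Gal4 chimera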
# Method in brief: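 HepG2 cells transiently transfected with GAL4-UAS reporter units expressing chimeric NR-Gal4 protein; reporter mRNA measured 24 h after dosing by RT-PCR, 6-FAM labelling and capillary electrophoresis. Gain-of-signal fitted relative to DMSO baseline.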
# [4] = target: human RAR-related Orphan Receptor gamma (RORg), RORC (gene 6097) (UniProt P51449); experiment: ATG_RORg_TRANS: Attagene TRANS-FACTORIAL HepG2 Assay for human RAR-related Orphan Receptor gamma (RORg) (AID 2283011);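 as to AC50: potency for induction of reporter transcripts above DMSO so activators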
# Method in brief: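 HepG2 cells transiently transfected with GAL4-UAS reporter units and chimeric RORg-Gal4 construct; after 24 h chemical exposure, reporter mRNA measured by RT-PCR with fluorescent capillary electrophoresis, gain of signal fitted against DMSO.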
# [5] = target: human Retinoid X Receptor beta (RXRb), RXRB (gene 6257) (UniProt P28702); experiment: ATG_RXRb_TRANS: Attagene TRANS-FACTORIAL HepG2 Assay for human Retinoid X Receptor beta (RXRb) (AID 2283013)
# Method in brief: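 HepG2 cells were transiently transfected with multiplexed GAL4-UAS reporters and a chimeric RXRb-Gal4 construct, then exposed for 24 h. Reporter mRNA was quantified by RT-PCR, FAM labeling, HpaI digestion and capillary electrophoresis; gain of signal was scored against DMSO.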
# [6] = target: human Vitamin D Receptor (VDR), VDR (gene 7421) (UniProt P11473); experiment: ATG_VDR_TRANS: Attagene TRANS-FACTORIAL HepG2 Assay for human Vitamin D Receptor (VDR) (AID 2283022)
# Method in brief: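 HepG2 cells were transiently transfected with GAL4-UAS reporter units and a chimeric VDR-Gal4 construct, then dosed for 24 hours. Reporter mRNA was quantified by RT-PCR, fluorescent labeling, HpaI digestion and capillary electrophoresis; gain of signal analysed vs DMSO.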
# [7] = target: human Thyroid Receptor alpha (THRa1), THRA (gene 7067) (UniProt P10827); experiment: ATG_THRa1_TRANS: Attagene TRANS-FACTORIAL HepG2 Assay for human Thyroid Receptor alpha (THRa1) (AID 2283014)
# Method in brief: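 HepG2 cells transiently transfected with chimeric NR-Gal4 and GAL4-UAS reporter units, dosed 24 h. Reporter mRNA quantified by RT-PCR, fluorescent labeling, HpaI digestion and capillary electrophoresis; gain-of-signal fit versus DMSO.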
# [8] = target: Retinoic acid receptor RXR-alpha (Homo sapiens) (UniProt P19793); experiment: ATG_RXRa_TRANS: Attagene TRANS-FACTORIAL HepG2 Assay for human Retinoid X Receptor alpha (RXRa) (AID 2283012)
# Method in brief: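 HepG2 cells transiently transfected with GAL4-UAS reporter units and chimeric RXRa-Gal4 protein, treated 24 h. Reporter mRNA measured by RT-PCR, fluorescent labelling, HpaI digestion and capillary electrophoresis. Induction fitted against DMSO.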
smiles,measurement,setting,value
C#CCOC(=O)[C@@H](C)Oc1ccc(Oc2ncc(Cl)cc2F)cc1,AC50,[1],inconclusive: 0.0128 µM
same,outcome,[2],inactive
same,outcome,[3],inactive
same,outcome,[4],inactive
same,AC50,[5],inconclusive: 50 µM
same,outcome,[6],inactive
COC(=O)C(F)(F)C(F)(F)C(F)(F)F,AC50,[1],inconclusive: 150 µM
same,AC50,[2],inconclusive: 150 µM
same,AC50,[3],inconclusive: 150 µM
same,AC50,[4],inconclusive: 150 µM
same,AC50,[5],inconclusive: 150 µM
same,outcome,[7],inactive
same,outcome,[6],inactive
CCO[Si](CCC1CCC2OC2C1)(OCC)OCC (stereo not drawn),AC50,[1],inconclusive: 100 µM
same,AC50,[2],inconclusive: 41.1 µM
same,AC50,[3],inconclusive: 100 µM
same,AC50,[8],inconclusive: 100 µM
same,AC50,[5],inconclusive: 100 µM
same,AC50,[7],inconclusive: 100 µM
CCc1ccc(O)cc1,AC50,[1],inconclusive: 28.1 µM
same,AC50,[2],inconclusive: 162 µM
same,outcome,[3],inactive
same,AC50,[4],inconclusive: 101 µM
same,AC50,[5],inconclusive: 186 µM
same,AC50,[7],inconclusive: 101 µM
O=c1oc(=O)c2cc3c(=O)oc(=O)c3cc12,outcome,[1],inactive
same,outcome,[2],inactive
same,AC50,[3],inconclusive: 47.5 µM
same,outcome,[8],inactive
same,AC50,[5],inconclusive: 100 µM
same,AC50,[7],inconclusive: 100 µM
Cc1oc2c(NC(=O)c3c(Cl)cccc3Cl)cccc2c1C(C)(C)O,AC50,[1],active: 0.204 µM
same,outcome,[2],inactive
same,AC50,[3],inconclusive: 61.2 µM
same,AC50,[4],inconclusive: 12.4 µM
same,AC50,[5],inconclusive: 100 µM
same,outcome,[7],inactive
CCN(CC#N)c1cccc(C)c1,outcome,[1],inactive
same,AC50,[2],inconclusive: 100 µM
same,AC50,[3],inconclusive: 100 µM
same,AC50,[8],inconclusive: 0.0823 µM
same,outcome,[5],inactive
O=C1c2ccccc2C(=O)c2c(O)c(O)cc(O)c21,AC50,[1],active: 31.5 µM
same,outcome,[2],inactive
same,outcome,[3],inactive
same,AC50,[8],inconclusive: 172 µM
same,AC50,[7],active: 21.4 µM
CCOc1cccc(-n2cc(C(=O)N3CCN(c4cc(C(=O)O)c5ccccc5c4)CC3)nc2-c2ccc(C)cc2)c1,AC50,[1],inconclusive: 54.6 µM
same,AC50,[2],inconclusive: 10.4 µM
same,AC50,[3],inconclusive: 15.7 µM
same,AC50,[4],inconclusive: 33 µM
same,AC50,[5],inconclusive: 6.78 µM
same,outcome,[7],inactive
same,outcome,[6],inactive
N=C(N)C(F)(F)C(F)(F)C(F)(F)C(F)(F)C(F)(F)C(F)(F)C(F)(F)F,outcome,[1],inactive
same,AC50,[2],inconclusive: 150 µM
same,outcome,[3],inactive
same,AC50,[7],inconclusive: 41.6 µM
same,outcome,[6],inactive
C=CC(=O)OCCCCCCCCCC,outcome,[1],inactive
same,AC50,[2],inconclusive: 26.9 µM
same,outcome,[3],inactive
same,outcome,[5],inactive
same,outcome,[6],inactive
FC(F)(F)C(F)(F)C(F)(F)C(F)(F)C(F)(F)CCI,outcome,[1],inactive
same,outcome,[2],inactive
same,outcome,[4],inactive
same,AC50,[5],active: 35.9 µM
Oc1c(Cl)cc(Cl)cc1Sc1cc(Cl)cc(Cl)c1O,AC50,[1],active: 1.9 µM
same,outcome,[2],inactive
same,outcome,[3],inactive
same,AC50,[5],inconclusive: 4.56 µM
same,outcome,[7],inactive
CNC(=S)NC,outcome,[1],inactive
same,AC50,[2],inconclusive: 176 µM
same,AC50,[4],inconclusive: 100 µM
same,AC50,[8],inconclusive: 100 µM
same,outcome,[5],inactive
same,outcome,[7],inactive
C=CC(=O)OCC(CO)(COCC(COC(=O)C=C)(COC(=O)C=C)COC(=O)C=C)COC(=O)C=C,outcome,[1],inactive
same,AC50,[2],inconclusive: 0.856 µM
same,AC50,[3],inconclusive: 11 µM
same,outcome,[6],inactive
O=c1[nH]cccc1O,AC50,[1],inconclusive: 100 µM
same,outcome,[2],inactive
same,outcome,[4],inactive
same,AC50,[8],inconclusive: 100 µM
same,AC50,[5],inconclusive: 100 µM
same,AC50,[6],inconclusive: 0.0822 µM

# Not a retest: an excerpt of the list.
smiles,measurement,setting,value
N=C(N)C(F)(F)C(F)(F)C(F)(F)C(F)(F)C(F)(F)C(F)(F)C(F)(F)F,outcome,[6],inactive
C=CC(=O)OCCCCCCCCCC,outcome,[1],inactive
same,AC50,[2],inconclusive: 26.9 µM
same,outcome,[3],inactive
same,outcome,[5],inactive
same,outcome,[6],inactive
FC(F)(F)C(F)(F)C(F)(F)C(F)(F)C(F)(F)CCI,outcome,[1],inactive
same,outcome,[2],inactive
same,outcome,[4],inactive
same,AC50,[5],active: 35.9 µM
Oc1c(Cl)cc(Cl)cc1Sc1cc(Cl)cc(Cl)c1O,AC50,[1],active: 1.9 µM
same,outcome,[2],inactive
same,outcome,[3],inactive
same,AC50,[5],inconclusive: 4.56 µM
same,outcome,[7],inactive
CNC(=S)NC,outcome,[1],inactive
same,AC50,[2],inconclusive: 176 µM
same,AC50,[4],inconclusive: 100 µM
same,AC50,[8],inconclusive: 100 µM
same,outcome,[5],inactive
same,outcome,[7],inactive
C=CC(=O)OCC(CO)(COCC(COC(=O)C=C)(COC(=O)C=C)COC(=O)C=C)COC(=O)C=C,outcome,[1],inactive
